Measured values taken from paper PMC8611766.
Results are given in words; binding and its absence hold for the method and conditions named. Binding seen in cells or lysates may run through a third protein. Some binding calls cover weakened binding; strength is not graded here. Blank lines part the entries; values can stand above or below the molecule they belong to.

Protein sequences, listed by entry. Tags and fused reporters are not part of them. Residues count along the entry.
UniProt Q62151, residues 23-402: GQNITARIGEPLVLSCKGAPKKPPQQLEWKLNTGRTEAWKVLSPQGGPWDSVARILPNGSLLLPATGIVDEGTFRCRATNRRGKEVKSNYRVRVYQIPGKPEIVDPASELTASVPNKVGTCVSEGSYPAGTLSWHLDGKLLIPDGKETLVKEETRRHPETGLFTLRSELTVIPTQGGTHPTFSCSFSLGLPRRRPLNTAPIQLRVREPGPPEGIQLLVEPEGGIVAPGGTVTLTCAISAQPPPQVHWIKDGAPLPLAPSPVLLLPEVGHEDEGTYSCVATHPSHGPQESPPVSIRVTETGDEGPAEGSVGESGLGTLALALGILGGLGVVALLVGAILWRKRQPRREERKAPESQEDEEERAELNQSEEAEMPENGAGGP

Assays:
[1] = target: T1, F-box protein O10 (FBXO10) (mouse (in BV2 cells; whether endogenous is not stated)) (UniProt Q7TQF2); test: co-IP; 500 ug total protein from cell lysates, precleared with protein A/G beads, primary antibody at 4 C overnight; IP for FBXO10 or for RAGE, immunoblot for FBXO10 or RAGE
T1 sequence: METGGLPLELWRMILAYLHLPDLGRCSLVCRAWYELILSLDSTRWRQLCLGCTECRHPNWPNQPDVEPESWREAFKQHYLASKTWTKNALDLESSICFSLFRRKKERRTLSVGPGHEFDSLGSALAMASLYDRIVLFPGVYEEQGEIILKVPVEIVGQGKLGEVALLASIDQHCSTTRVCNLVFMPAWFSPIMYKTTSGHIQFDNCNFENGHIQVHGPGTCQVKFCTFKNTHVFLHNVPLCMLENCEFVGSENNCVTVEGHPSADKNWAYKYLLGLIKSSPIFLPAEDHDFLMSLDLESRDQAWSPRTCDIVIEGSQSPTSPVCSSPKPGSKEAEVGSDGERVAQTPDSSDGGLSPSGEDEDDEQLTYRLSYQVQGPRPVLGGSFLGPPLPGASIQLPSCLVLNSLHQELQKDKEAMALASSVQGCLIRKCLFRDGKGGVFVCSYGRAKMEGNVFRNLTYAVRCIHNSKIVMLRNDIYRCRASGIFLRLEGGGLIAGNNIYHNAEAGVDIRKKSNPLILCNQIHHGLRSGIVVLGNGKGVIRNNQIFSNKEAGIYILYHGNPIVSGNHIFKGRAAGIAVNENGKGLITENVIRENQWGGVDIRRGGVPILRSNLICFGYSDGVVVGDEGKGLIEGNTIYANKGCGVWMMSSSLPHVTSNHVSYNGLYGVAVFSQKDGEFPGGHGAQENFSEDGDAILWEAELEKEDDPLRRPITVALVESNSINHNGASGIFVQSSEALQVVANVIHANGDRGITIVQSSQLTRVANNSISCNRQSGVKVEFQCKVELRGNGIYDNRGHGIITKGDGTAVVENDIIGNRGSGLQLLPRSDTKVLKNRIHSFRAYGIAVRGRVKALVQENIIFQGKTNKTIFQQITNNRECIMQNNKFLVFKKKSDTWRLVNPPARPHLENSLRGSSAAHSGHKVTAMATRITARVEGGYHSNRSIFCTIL

[2] = target: receptor for advanced glycosylation end products (RAGE) (mouse (in BV2 cells; whether endogenous is not stated)) (UniProt Q62151); test: as above

- binding [1]: binds
Molecule: receptor for advanced glycosylation end products (RAGE) (from UniProt Q62151 23-402)

- binding [2]: binds
B1: F-box protein O10 (FBXO10) (protein, UniProt Q7TQF2 1-950)
chain: T1 sequence
